Source: paper PMC7862700
This is a selection; strong and weak results do not stand in their true shares. At the low end of the ranking, values are background and their order means little.

The chains behind the UniProt entries cited, without tags or fusion partners. Where a name states a change or a piece, a line headed by the entry shows the natural chain unless it says otherwise.
UniProt O43186: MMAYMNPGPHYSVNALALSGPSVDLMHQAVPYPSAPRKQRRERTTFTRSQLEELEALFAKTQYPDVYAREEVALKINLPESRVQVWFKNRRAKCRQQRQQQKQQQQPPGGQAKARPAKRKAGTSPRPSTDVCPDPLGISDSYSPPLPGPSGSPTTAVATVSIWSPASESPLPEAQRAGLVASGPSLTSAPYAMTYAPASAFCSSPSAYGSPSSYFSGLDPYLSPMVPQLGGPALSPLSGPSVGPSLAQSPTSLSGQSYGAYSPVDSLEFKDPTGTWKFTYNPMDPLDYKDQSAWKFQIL

The sequences below were run against CRX (UniProt O43186) (assay: DAPPL (digital affinity profiling via proximity ligation, sequencing)). Conditions: 10 mM Tris-HCl pH 7.5, 50 mM NaCl, 1 mM DTT, 4% glycerol, room temperature, 30 min; GST-TFs on glutathione beads, 16-mer random dsDNA library, 0.1% …; high values mean tight binding; double strand, one strand shown; scale: fold enrichment (6-mer frequency, TF over GST control).
ACGCTG showed a binding signal of 0.954.
In the case of TGCACG, the binding signal is reported as 0.916.
ACATAC showed a binding signal of 0.888.
With TAACGA the binding signal was 1.57.
TACTTT was tested, and the binding signal was 1.71.
For CCTCGT, the binding signal was 0.914.
CGGCTT was tested, and the binding signal was 1.95.
With GCCGAC the binding signal was 0.91.
With ATGGCC the binding signal was 1.08.
AACACA gave a binding signal of 1.1.
CACTCT was tested, and the binding signal was 1.08.
ATAACT was tested, and the binding signal was 1.29.
CGTCTA gave a binding signal of 1.28.
With CCATTC the binding signal was 0.957.
With GATATC the binding signal was 1.02.
For TTATAC, the binding signal was 2.54.
Sequence TTCTCG has a binding signal of 2.17.
In the case of TTTGGC, the binding signal is reported as 1.49.
Work on CCTCCC yielded a binding signal of 1.21.
Sequence TGGATG has a binding signal of 1.45.
TTGGTG gave a binding signal of 1.28.
Work on ACTGCG yielded a binding signal of 0.925.
Sequence TTGATG has a binding signal of 1.5.
CATGAA gave a binding signal of 0.956.
CTGGTT showed a binding signal of 1.22.
CAACAT gave a binding signal of 0.862.
CCATAT showed a binding signal of 1.09.
With GTTCAT the binding signal was 0.967.
CGCCCG gave a binding signal of 0.85.
Sequence TTGCAT has a binding signal of 1.33.
CTCACT gave a binding signal of 1.27.
With GATGGT the binding signal was 0.935.
ATGCGG gave a binding signal of 0.918.
In the case of AACGTC, the binding signal is reported as 0.899.
In the case of AACAAT, the binding signal is reported as 1.24.
With TGCACT the binding signal was 1.06.
With TGTGTT the binding signal was 0.854.
For TTGAAT, the binding signal was 1.17.
GCACTT showed a binding signal of 1.16.
TCTCGG gave a binding signal of 1.44.
